Results as given in patent US11149066B2, “Thrombospondin 1-binding peptide” (DAIICHI SANKYO COMPANY, LIMITED, priority 2016, dated 2021).
At least one compound was matched to its structure with a doubt left. Positions of bridges follow the written chain, without caps; N, C: chain ends. Non-standard residues stand in square brackets, D forms with d. Residues, ends and D or L forms follow the SMILES beside them. 2Nal = N[C@@H](Cc1ccc2ccccc2c1)C(=O)O; Nle = CCCC[C@H](N)C(=O)O

The chains behind the UniProt entries cited, without tags or fusion partners. Residues count along the entry.
UniProt P07996, 19-1170 limits assumed: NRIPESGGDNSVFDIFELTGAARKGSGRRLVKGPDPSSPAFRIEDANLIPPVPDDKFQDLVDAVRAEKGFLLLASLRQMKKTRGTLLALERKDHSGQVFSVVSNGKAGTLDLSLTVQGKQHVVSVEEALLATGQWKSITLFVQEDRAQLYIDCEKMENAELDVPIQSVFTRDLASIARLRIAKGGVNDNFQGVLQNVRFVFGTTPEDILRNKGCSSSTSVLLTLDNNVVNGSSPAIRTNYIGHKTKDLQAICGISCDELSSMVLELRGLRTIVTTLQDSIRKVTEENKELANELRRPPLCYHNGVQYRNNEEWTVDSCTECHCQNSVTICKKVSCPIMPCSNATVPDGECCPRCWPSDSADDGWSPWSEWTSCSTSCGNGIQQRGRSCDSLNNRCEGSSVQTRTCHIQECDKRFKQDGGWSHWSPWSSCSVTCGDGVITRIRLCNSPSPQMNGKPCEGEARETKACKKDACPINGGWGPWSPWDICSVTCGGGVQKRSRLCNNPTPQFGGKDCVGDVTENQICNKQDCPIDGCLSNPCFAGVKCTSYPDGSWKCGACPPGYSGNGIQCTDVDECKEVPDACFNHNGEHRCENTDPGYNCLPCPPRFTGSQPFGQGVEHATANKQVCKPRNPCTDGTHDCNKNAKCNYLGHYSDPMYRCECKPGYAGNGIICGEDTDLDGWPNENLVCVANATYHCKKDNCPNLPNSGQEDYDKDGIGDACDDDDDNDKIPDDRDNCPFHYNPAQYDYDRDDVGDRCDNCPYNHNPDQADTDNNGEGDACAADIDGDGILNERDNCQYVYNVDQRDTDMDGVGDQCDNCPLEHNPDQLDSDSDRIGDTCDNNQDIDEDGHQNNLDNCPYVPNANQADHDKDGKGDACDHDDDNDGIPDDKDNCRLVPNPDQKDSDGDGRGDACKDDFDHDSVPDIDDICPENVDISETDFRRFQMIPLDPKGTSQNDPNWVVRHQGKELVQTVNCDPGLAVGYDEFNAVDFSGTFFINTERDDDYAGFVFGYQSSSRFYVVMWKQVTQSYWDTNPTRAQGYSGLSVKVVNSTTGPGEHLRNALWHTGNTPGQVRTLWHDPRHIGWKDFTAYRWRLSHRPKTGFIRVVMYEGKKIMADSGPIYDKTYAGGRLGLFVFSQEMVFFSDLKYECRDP

Target: human TSP1 (Homo sapiens, UniProt P07996)
Test: Cell adhesion inhibition assay (HUVEC adhesion to TSP1-coated plate)
Type: cell-based
Conditions: read-out: cell adhesion inhibition (Table 4)
Procedure: As referred to herein, the TSP1 inhibitory activity refers to the activity to inhibit one or more effects of TSP1, including angiostatic effect. The TSP1 inhibitory activity is measured by a cell adhesion inhibition assay using human TSP1 and vascular endothelial cells as described hereinbelow in the Examples section. In this assay, when the 50% inhibitory concentration (IC5O) of a test substance is 200 nM or less, the test substance is determined to have TSP1 inhibitory activity.
(Test Example 1) Cell Adhesion Inhibition Assay
I. Materials and Reagents
96 well Non-treated White with clear bottom (Coster, 3632)
BrightMax adhesive sealing films (EXCEL Scientific, WT50) […]
To maintain HUVECs, EGM2-MV and a collagen coated dish were used (the cells were ceased to be used after 10th or 1 lth passage since the cell proliferation rate declined at this stage). […] The cells were resuspended in a DMEM buffer, counted for cell number, and diluted to 10000 cells/50 μL. […]
After cell adhesion was confirmed, the culture medium was completely removed by an aspirator, and 100 μL/well of DMEM/0.5% BSA was gently dispensed. […] Fluorescence emission was detected using EnVision Xcite Multilabel Reader (produced by Perkin Elmer).
On the basis of the measured fluorescence values, the IC50 values (nM) of the different macrocyclic polypeptides for inhibition of cell adhesion were calculated.

CCCC[C@@H]1NC(=O)[C@H](Cc2c[nH]c3ccccc23)NC(=O)[C@H](CC(=O)O)NC(=O)[C@H](CCCNC(=N)N)NC(=O)CNC(=O)[C@H](CO)NC(=O)[C@H]([C@@H](C)CC)NC(=O)[C@H](Cc2ccc3ccccc3c2)NC(=O)[C@@H](N)CSSC[C@@H](C(N)=O)NC(=O)[C@H](C(C)C)NC(=O)[C@H](Cc2c[nH]c3ccccc23)NC(=O)[C@H](CCCCN)NC1=O [Compound 97] (H-C[2Nal]ISGRDW[Nle]KWVC-NH2; disulfide 1-13; N-terminus and C-terminus assumed)
IC50: 21 nM
